About 5,500 (1.4%) of roughly 400,000 compounds were called active. This list was built around the results that the source calls inconclusive (neither active nor inactive); the mix of calls is not that of the screen. The call rests on the fitted dose curve; in most records, active means well fitted cell-killing curve with a large enough effect; inconclusive means small, poorly fitted or top-dose-only effect, or effect the other way; inactive means flat fitted curve, though single readings scatter. Potencies of inconclusive entries are doubtful fits and often do not repeat.
assay: qHTS assay for MDR1-selective chemotherapeutics: Primary screen using the parental adenocarcinoma cell KB-3-1; settings: KB-3-1 viability, CellTiter-Glo ATP luminescence, 72 h; activity change, negative = cytotoxic: at 46.1 µM (top of the series); further: nearly all actives have a fitted effect of over 60% in size
How it was run: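 Cytotoxicity in the drug-sensitive parental line KB-3-1 was scored as loss of CellTiter-Glo luminescence following 72 h incubation with compound. Values come from curve fitting of normalized concentration-response data.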
On the % scale 0 is the no-effect control and ±100 the full control effect; potency means the concentration at half of the fitted maximal effect.

Question: For C/C=C/Cn1c(Br)nc2c1c(=O)n(C)c(=O)n2C, which Potency is on record?
Answer: Its Potency is “inactive”.

Question: For Cc1cccc(NC(=O)/C(C#N)=C/c2ccc(Cl)cc2)n1, which Potency is on record?
Answer: The Potency was “inactive”.

Question: With CCN(CC)S(=O)(=O)c1cccc(S(=O)(=O)c2cccc(S(=O)(=O)N(CC)CC)c2)c1 as the molecule, how does the Potency read?
Answer: The Potency was inconclusive: 10.3 µM [cytotoxic, partial curve].

Question: Which Potency does the source give for Cc1cccc(-c2nnc(SCC(=O)NC3CCCC3)o2)c1 here?
Answer: The Potency was inconclusive: 11.6 µM [rising, partial curve].

Question: Which Potency does the source give for Cc1ccc(/C=C/C2=NN(Cc3ccccc3)C(=O)CC2)cc1 here?
Answer: Its Potency is inconclusive: 20.6 µM [cytotoxic, single point].

Question: For CCOC(=O)CSC1=C(C#N)C(c2ccc3c(c2)OCO3)CC(=O)N1 (stereo not given), which Potency is on record?
Answer: Its Potency is active: 7.31 µM.

Question: Which Potency does the source give for COc1cccc(CNC(=O)c2cc3c(C)nc4ccccc4c3o2)c1 here?
Answer: The Potency was inconclusive: 18.4 µM [cytotoxic, single point].

Question: Which Potency does the source give for N#C/C(N=Nc1ccccc1O)=N\Nc1ccccc1O here?
Answer: The Potency was active: 16.4 µM.

Question: Which Potency does the source give for CN1/C(=C\C=N\NC(=O)c2ccc(O)cc2)C(C)(C)c2ccccc21 here?
Answer: The Potency was “inactive”.

Question: With Cc1nn(C)cc1C(C(=O)NC1CCCCC1)N(C(=O)Cc1cccs1)c1ccc(C(C)C)cc1 (stereo not given) as the molecule, how does the Potency read?
Answer: Its Potency is inconclusive: 29.1 µM [cytotoxic, single point].

Question: Which Potency does the source give for Cc1cccc(NC(=O)C(Cc2ccccc2)n2cccc2)c1 (stereo not given) here?
Answer: Its Potency is “inactive”.

Question: For c1ccc2c(c1)CCCN2Cc1nnnn1C1CCCC1, which Potency is on record?
Answer: Its Potency is inconclusive: 29.1 µM [cytotoxic, single point].

Question: For CC1=C(CC(=O)c2ccc(Cl)cc2)C(=O)c2ccccc2C1=O, which Potency is on record?
Answer: The Potency was inconclusive: 29.1 µM [cytotoxic, single point].

Question: For COc1ccc(Br)cc1/C=N/NC(=O)c1cccc(S(=O)(=O)N2CCOCC2)c1, which Potency is on record?
Answer: Its Potency is inconclusive: 10.3 µM [cytotoxic, partial curve, poor fit].

Question: For O=S1(=O)CCOC[C@H](CC2CCCCC2)N1Cc1cccc(F)c1, which Potency is on record?
Answer: Its Potency is inconclusive: 29.1 µM [cytotoxic, single point].

Question: Which Potency does the source give for O=c1cc2c(n[nH]1)-c1ccccc1CC2 here?
Answer: Its Potency is active: 1.3 µM.

Question: For Cc1cc(CCNC=O)c(C)c2c1sc1ccccc12, which Potency is on record?
Answer: The Potency was active: 16.4 µM.

Question: Which Potency does the source give for COCCNC(=O)c1cnn2c(C(F)F)cc(-c3ccccc3)nc12 here?
Answer: The Potency was “inactive”.

Question: Which Potency does the source give for O=C(O)c1ccc(CN2C(=O)CSC2=S)cc1 here?
Answer: Its Potency is inconclusive: 20.6 µM [cytotoxic, single point].

Question: Which Potency does the source give for CCOC(=O)C1CCN(S(=O)(=O)c2cc(C(=O)N3CCCCC3)ccc2OC)CC1 here?
Answer: Its Potency is “inactive”.

Question: For COc1ccc(CNC(=O)c2sc(=O)n(Cc3ccc(C)cc3)c2C)cc1, which Potency is on record?
Answer: Its Potency is “inactive”.

Question: With Cc1ccccc1-c1cc(C(=O)O)nn1CC1CC(c2cccc([N+](=O)[O-])c2)=NO1 (stereo not given) as the molecule, how does the Potency read?
Answer: Its Potency is inconclusive: 14.6 µM [rising, partial curve, poor fit].

Question: With CC(C)Oc1c(Br)cc(Br)cc1/C=N/NC(N)=S as the molecule, how does the Potency read?
Answer: Its Potency is inconclusive: 20.6 µM [cytotoxic, single point].

Question: Which Potency does the source give for CC(C)[C@@H]1Cc2[nH]c(=S)[nH]c(=O)c2[C@H](CCc2ccccc2)O1 here?
Answer: The Potency was “inactive”.

Question: For CN(C)S(=O)(=O)N(CC(=O)N(Cc1ccccc1)Cc1ccccc1)c1ccccc1, which Potency is on record?
Answer: Its Potency is inconclusive: 12.6 µM [cytotoxic, partial curve, poor fit].

Question: Which Potency does the source give for COc1ccc2oc(C(=O)Nc3nccs3)c(C)c2c1 here?
Answer: Its Potency is “inactive”.

Question: For CCC1CCCCN1CCCCOc1cccc(Cl)c1 (stereo not given), which Potency is on record?
Answer: Its Potency is “inactive”.

Question: Which Potency does the source give for CC(=O)c1ccc(-c2ccc(C(=O)NC3CCCCCC3)o2)cc1 here?
Answer: The Potency was inconclusive: 32.6 µM [rising, single point].

Question: Which Potency does the source give for Cc1ccc(C(=O)Nc2sc3c(c2C(=O)O)CCCC3)o1 here?
Answer: The Potency was inconclusive: 8.2 µM [cytotoxic, partial curve, poor fit].

Question: For CC(C(=O)Nc1cccc(C#N)c1)n1nc(-c2ccccc2)c2c(c1=O)CCCC2 (stereo not given), which Potency is on record?
Answer: Its Potency is inconclusive: 8.2 µM [cytotoxic, partial curve, poor fit].

Question: With NC(=S)N/N=C/c1ccc(C23CC4CC(CC(C4)C2)C3)cc1 as the molecule, how does the Potency read?
Answer: Its Potency is inconclusive: 32.6 µM [cytotoxic, single point].

Question: Which Potency does the source give for CC(C)(C)n1nnnc1C(c1cccs1)N(Cc1cccnc1)Cc1ccccc1Cl (stereo not given) here?
Answer: The Potency was inconclusive: 29.1 µM [cytotoxic, single point].

Question: For CCCCCCCCCCCCCCCC[N+](C)(C)CCN(Cc1ccc(OC)cc1)c1ncccn1, which Potency is on record?
Answer: The Potency was inconclusive: 29.1 µM [cytotoxic, single point].

Question: For N#CC1=C(N)Oc2cc(O)ccc2C1c1ccccc1 (stereo not given), which Potency is on record?
Answer: Its Potency is inconclusive: 13 µM [cytotoxic, partial curve].

Question: Which Potency does the source give for Cc1cc(-c2nn(-c3ccccc3)cc2/C=C2\SC(N)=NC2=O)ccc1OC(C)C here?
Answer: Its Potency is inconclusive: 20.6 µM [cytotoxic, single point].

Question: Which activity change, negative = cytotoxic does the source give for Cc1cccc(C(=O)Nc2ccc(C(=O)c3ccncc3)cc2)c1 here?
Answer: The activity change, negative = cytotoxic was inconclusive: 1.65%.

Question: For CCSc1nsc(NC(=O)Nc2ccc(F)cc2F)n1, which Potency is on record?
Answer: Its Potency is inconclusive: 16.4 µM [cytotoxic, single point].

Question: Which Potency does the source give for Cc1cccc(-c2nc(S(=O)(=O)c3ccc(F)cc3)c(N3CCN(c4ccccc4)CC3)o2)c1 here?
Answer: The Potency was “inactive”.

Question: Which Potency does the source give for CCn1c(/C=C/c2cc(Br)ccc2O)nc2ccccc2c1=O here?
Answer: The Potency was inconclusive: 29.1 µM [cytotoxic, single point].

Question: With COC(=O)c1sc(NC(=O)C2CCCO2)c(C(=O)OC)c1C (stereo not given) as the molecule, how does the Potency read?
Answer: Its Potency is “inactive”.

Question: With Cn1cnnc1SCc1ccc(C(=O)N=Nc2c(O)n(Cc3ccc(Cl)cc3)c3ccccc23)cc1 as the molecule, how does the Potency read?
Answer: The Potency was inconclusive: 29.1 µM [cytotoxic, single point].

Question: Which Potency does the source give for COc1cc2[nH]c(=O)c(C(=O)NCc3ccccc3Cl)c(O)c2cc1OC here?
Answer: The Potency was inconclusive: 0.231 µM [rising, full curve].

Question: With CC(C)(C)c1nc(N2CCN(C(=O)c3ccco3)CC2)c2nnn(Cc3ccccc3)c2n1 as the molecule, how does the Potency read?
Answer: Its Potency is inconclusive: 23.1 µM [cytotoxic, single point].

Question: For COc1ccc(OC)c(/C=C2\SC(=S)N(Cc3cccnc3)C2=O)c1, which Potency is on record?
Answer: The Potency was inconclusive: 23.1 µM [cytotoxic, single point].

Question: Which Potency does the source give for CCC1=C(OC(=O)N(CC)CC)N2C(=O)OC(=NCc3ccccc3)[C@]2(C)[C@H]2C1=CC[C@H]1C(=O)NC(=O)[C@H]12 here?
Answer: The Potency was “inactive”.

Question: Which Potency does the source give for Cc1ccccc1NC(=O)c1ccc(CN2CCC(Cc3ccccc3)CC2)cc1 here?
Answer: The Potency was inconclusive: 25.9 µM [cytotoxic, single point].

Question: Which Potency does the source give for OC(CNC1CCCC1)COc1ccccc1Br (stereo not given) here?
Answer: Its Potency is “inactive”.

Question: For O=C(NC1CCCC1)C(c1ccccn1)N(Cc1ccc(F)cc1)C(=O)c1csnn1 (stereo not given), which Potency is on record?
Answer: Its Potency is inconclusive: 0.206 µM [cytotoxic, full curve].

Question: For N#CCc1ccc(NC(=O)/C=C/c2ccc([N+](=O)[O-])o2)cc1, which Potency is on record?
Answer: The Potency was active: 5.17 µM.

Question: For O=C(NCc1cccc(Cl)c1)c1cc2c(s1)-c1ccccc1OC2, which activity change, negative = cytotoxic is on record?
Answer: The activity change, negative = cytotoxic was inconclusive: -35.5%.

Question: For CS(=O)(=O)c1ccc(CNC(=O)C2(C(F)(F)F)CC(CCCO)CCCO2)cc1 (stereo not given), which Potency is on record?
Answer: The Potency was active: 5.8 µM.

Question: With c1ccc2nccnc2c1 as the molecule, how does the Potency read?
Answer: Its Potency is active: 4.61 µM.

Question: For Cc1ccc(Nc2nc(N)nc(CN3CCN(c4ccccc4F)CC3)n2)cc1, which Potency is on record?
Answer: The Potency was inconclusive: 11.6 µM [cytotoxic, partial curve].

Question: For Cc1ccc(C(=O)n2c(N)nc3ccccc32)cc1, which Potency is on record?
Answer: Its Potency is inconclusive: 16.4 µM [cytotoxic, single point].

Question: For Cc1ccc(NC(=O)c2cc(C(C)(C)C)nn2Cc2ccccc2)cc1, which Potency is on record?
Answer: Its Potency is inconclusive: 11.6 µM [cytotoxic, partial curve, poor fit].

Question: With Brc1ccc(CSc2nnc(-c3cnccn3)n2Cc2ccco2)cc1 as the molecule, how does the Potency read?
Answer: The Potency was inconclusive: 18.4 µM [cytotoxic, single point].

Question: For CC1(C)OC2C(CO)OC(n3cnc4c(=S)nc[nH]c43)C2O1 (stereo not given), which Potency is on record?
Answer: Its Potency is inconclusive: 29.1 µM [cytotoxic, partial curve, poor fit].

Question: Which Potency does the source give for CC1(C)CC(=Cc2cc(O)ccc2[N+](=O)[O-])C(=O)c2ccccc21 here?
Answer: The Potency was inconclusive: 23.1 µM [cytotoxic, partial curve, poor fit].

Question: With CC(=O)Nc1ccc(C(=O)CSc2nnc(-c3ccccc3)n2-c2ccccc2)cc1 as the molecule, how does the Potency read?
Answer: Its Potency is “inactive”.

Question: For COC(=O)c1ccc(OCC(O)CN2CCN(CC(O)COc3ccc(C(=O)OC)cc3)CC2)cc1 (stereo not given), which activity change, negative = cytotoxic is on record?
Answer: The activity change, negative = cytotoxic was inconclusive: -16.7%.

Question: For Cn1c(Sc2ccc([N+](=O)[O-])cc2C(F)(F)F)nnc1-c1ccccc1, which Potency is on record?
Answer: Its Potency is inconclusive: 18.4 µM [cytotoxic, single point].

Question: For COc1nc(NS(=O)(=O)c2ccc(C)cc2)nc(C)c1Cl, which Potency is on record?
Answer: Its Potency is inconclusive: 23.1 µM [rising, single point].

Question: Which Potency does the source give for COc1ccc(NC(=O)c2oc3ccccc3c2NC(=O)C2CCCCC2)c(OC)c1 here?
Answer: Its Potency is “inactive”.

Question: For Clc1ccc(-n2c(Cc3ccccc3)nnc2SCc2nc(-c3cccs3)no2)cc1, which Potency is on record?
Answer: Its Potency is inconclusive: 20.6 µM [cytotoxic, single point].

Question: For C=CCn1c(=O)c2c3c(sc2n2c(Nc4ccc(C(=O)OCC)cc4)nnc12)CCCC3, which Potency is on record?
Answer: Its Potency is “inactive”.

Question: For O=C(c1ccccc1OC(F)F)N1CCN(S(=O)(=O)c2ccc3c(c2)OCCCO3)CC1, which Potency is on record?
Answer: Its Potency is inconclusive: 5.8 µM [cytotoxic, partial curve, poor fit].

Question: For COc1ccc(Cc2c(-c3ccccc3)nc3c(C)cc(Br)cn23)c(C)c1, which Potency is on record?
Answer: Its Potency is inconclusive: 7.31 µM [cytotoxic, partial curve, poor fit].

Question: With O=C(NCCCN1CCOCC1)c1ccc(NS(=O)(=O)c2ccccc2)cc1 as the molecule, how does the Potency read?
Answer: The Potency was “inactive”.

Question: Which Potency does the source give for Oc1cccc(Nc2nc(NCC3CCCO3)c3ccccc3n2)c1 (stereo not given) here?
Answer: The Potency was inconclusive: 29.1 µM [cytotoxic, single point].

Question: Which Potency does the source give for COc1cc(CNC(=O)Nc2nc(C(N)Cc3ccc(C(F)(F)F)cc3)cs2)cc(OC)c1OC (stereo not given) here?
Answer: Its Potency is inconclusive: 29.1 µM [cytotoxic, single point].
